Out of some 52,000 sequences screened, about 210 (0.4%) were called active.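 Rule for the calls: active = gene whose silencing raises cell survival under the drug, median off-target-corrected z-score across its silencing RNAs 2 or more; inactive = the rest.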 The list shows a part of the results.
Experiment: Resistance to Poly (ADP-Ribose) Polymerase inhibitor: Gene Identification via Genome-wide siRNA Screen
Conditions: mouse BRCA2 R2336H ES cells, olaparib, CellTiter-Glo viability; stronger effect = higher value
In short: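 Mouse BRCA2 R2336H ES cells were reverse-transfected with siRNA (20 nM final), treated at 48 h with 500 nM olaparib, and read by CellTiter-Glo after 72 h. Scores: MAD-based z per siRNA, median per gene, seed off-target correction.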

Sequence | z-score
CCGACACGUUCUCAAUGUCTT against Gss | inactive: -0.275
GGAAAUAGAAGACCAGUUUTT against Sfrs3 | inactive: 0.155
GCUGGUCUAAUCUGGAAACTT against 1200002G13Rik | inactive: 0.0672
GCAUUUCCGGGUUGUUACATT against 4930563C04Rik | inactive: -0.961
CGCAGGUGUAACACUCAUUTT against Ifitm3 | inactive: -0.382
GGGUAUGCUUCAGUGUUCATT against 2610036N15Rik | inactive: 0.438
GCAGAGUGUGGUUAGUGGGTT against Cobl | inactive: -0.00865
GGAAAAACUCCUCUGAGGCTT against 5330431N19Rik | inactive: 0.714
GGAUCAAGUUAUUUCUUACTT against Olfr1156 | inactive: -0.677
GGCGAAGGAGAAGAAUUAATT against Pem | inactive: 1.17
GGGAGUCUGGUGGAUUGAUTT against Rln1 | inactive: 0.141
GGCUCAUGGAAAACUCUAUTT against Hspa9a | inactive: -2.84
GGAGUGGAUGACAUGAUCCTT against Myo7b | inactive: 0.203
GGAUUUUAAUGUAGGAGAGTT against Pip5k2b | inactive: 0.563
GGUGACCACUUUAAACUUCTT against Znhit1 | inactive: 0.124
GGACCAUUUGGUUAAUGCCTT against Fkbp3 | inactive: 0.761
GGUUUUGGCGGAUACUAAGTT against M6prbp1 | inactive: 1.34
GCUAGAAGACAAUUACCUGTT against 4632419K20Rik | inactive: -0.492
GGCUCUUCUGUCACCUUCATT against Prr3 | inactive: 0.366
GGAUAUCAUAUUUUCUCAGTT against 4921509E07Rik | inactive: 1.1
GGAGAAACAGAUUGAGCAGTT against Atp6v1e2 | inactive: 1.54
GGCCUGAGCUGAUUGAGUATT against Actn4 | inactive: -1.59

Sequence | z-score
GGGCCAUGCAAUCAUCAAGTT against Mesdc1 | inactive: 0.738
GCUCUAGGGUCGUAAUGUUTT against Ralb | inactive: -1.8
GCUAUGUCAUGGAAAGAAUTT against Pik3c2a | inactive: -0.813
GGUCUACAGGCCUAUGUUGTT against A230051G13Rik | inactive: -2.26
GCUGGUAGAAUACUAAGUATT against Metrn | inactive: -0.956
GCUUACCAAUUGAAAACUGTT against Terf1 | inactive: 0.845
GGCUGGGAAAAAAAAAGAATT against Ifi205 | inactive: -0.0763
GGCAAGCUUCCAGAUCGAATT against Adam23 | inactive: -0.961
CCCAACUUCCGAAAGCUGUTT against Slc6a1 | inactive: 1.58
GGUCACUUCCUGUCUUUAATT against Tslpr | inactive: -0.846
CGUGUAGGCAGAAUAGUUATT against Ankrd16 | inactive: -0.952
GCCGCUUUCAUUAAGGCUGTT against Pdcd10 | inactive: -0.292
GGAUCAUACAAUAUCCUUUTT against Olfr466 | inactive: -0.233
GGUUUAUAGGCCUUCUUCCTT against Flot2 | inactive: -0.238
CGUUGUCAGUGUAAAUAUUTT against Osbpl6 | inactive: 1.09
CGGUCUAUGAAAGUUAUUCTT against Mcmdc1 | inactive: -0.818
GGUGUUGAACCUCAUCCAGTT against Tom1 | inactive: -1.82
GCAUGUUUGGAUUGCUAUUTT against Olfr653 | inactive: -0.135
GGCAUUGUGAUUCUUUGUCTT against Tal1 | inactive: -0.684
GCCCAUGGAUACUACUUCATT against Syncrip | inactive: 1.33
GAGAGAGGGAAUUUGCUCCTT against Pcdhb8 | inactive: -0.173
GGAAGUAUCGAGAUUCAUGTT against A330068P14Rik | inactive: -0.372

Some of the entries so far, tab-delimited.
Sequence	z-score
GCUCUAGGGUCGUAAUGUUTT against Ralb	inactive: -1.8
GCUAUGUCAUGGAAAGAAUTT against Pik3c2a	inactive: -0.813
GGUCUACAGGCCUAUGUUGTT against A230051G13Rik	inactive: -2.26
GCUGGUAGAAUACUAAGUATT against Metrn	inactive: -0.956
GCUUACCAAUUGAAAACUGTT against Terf1	inactive: 0.845
GGCUGGGAAAAAAAAAGAATT against Ifi205	inactive: -0.0763
GGCAAGCUUCCAGAUCGAATT against Adam23	inactive: -0.961
CCCAACUUCCGAAAGCUGUTT against Slc6a1	inactive: 1.58
GGUCACUUCCUGUCUUUAATT against Tslpr	inactive: -0.846
CGUGUAGGCAGAAUAGUUATT against Ankrd16	inactive: -0.952
GCCGCUUUCAUUAAGGCUGTT against Pdcd10	inactive: -0.292
GGAUCAUACAAUAUCCUUUTT against Olfr466	inactive: -0.233
GGUUUAUAGGCCUUCUUCCTT against Flot2	inactive: -0.238
CGUUGUCAGUGUAAAUAUUTT against Osbpl6	inactive: 1.09
CGGUCUAUGAAAGUUAUUCTT against Mcmdc1	inactive: -0.818
GGUGUUGAACCUCAUCCAGTT against Tom1	inactive: -1.82
GCAUGUUUGGAUUGCUAUUTT against Olfr653	inactive: -0.135
GGCAUUGUGAUUCUUUGUCTT against Tal1	inactive: -0.684
GCCCAUGGAUACUACUUCATT against Syncrip	inactive: 1.33
GAGAGAGGGAAUUUGCUCCTT against Pcdhb8	inactive: -0.173

Carrying on.

Sequence | z-score
GCACAUAGUAAGAACUUAUTT against 2010316F05Rik | inactive: -1.03
GGAGGCAAUUCAGAAGUGGTT against 2900001O04Rik | inactive: -0.453
GGAAGGUCUUCGAGAUUUUTT against Gpr75 | inactive: 1.85
GGAAGUGAUUCUGCUAUGUTT against 2610510J17Rik | inactive: -1.91
GCUUUAAGCCCUGCUCUGUTT against D030069K18 | inactive: -0.886
GGUACGAAAAAUUCCUACGTT against Ang4 | inactive: 0.344
GGAAAGUGUGUGUUAUAUUTT against Zfp358 | inactive: 1.97
GCAACAAGCUUUCUGUGCGTT against 4933403G14Rik | inactive: 1.4
GGAAUACCAGACCACACUGTT against 5430435G22Rik | inactive: -0.285
GGAAAAAACGCACCAGCAUTT against Pou2f1 | inactive: -0.673
GCUACAGAUUUCAGGAAAGTT against Gm1128 | inactive: 1.85
CCUGAUCUCAGCCUAUACUTT against Rapgef6 | inactive: 2.52
GGUAAAUGACAACUUUCUUTT against Slco6b1 | inactive: -0.233
GGUGAAGCAAAACGGAGGATT against H2-M10.1 | inactive: 0.687
GCAUCGAAGAGUACCUUCATT against Zfhx1b | inactive: -0.293
GGCUUUCAGGAUAUCAUUUTT against Hist1h3f | inactive: 0.25
GGAGUAUGCGUGUUGCCAATT against 1700018B08Rik | inactive: 1.36
UAUUACAAUGAUCACUGGCTT against Idb1 | inactive: 0.0274
GCUGUAAGGAGGAACUUCUTT against Btg1 | inactive: 1.65
GAUUACCGCACUUCAGAUCTT against BC088983 | inactive: -1.94
GGGAAUUCCUCAGUUCAAATT against Adam7 | inactive: -0.528
GGAAGUGAUUGAAAUGGUGTT against Ror1 | inactive: -1.77

Reference: PubChem BioAssay AID1347423 (Functional Genomics Laboratory (NCATS/FGL), 2020)
